Drawing on doi:10.1101/750596, this text covers binding for 1 molecule.

These are yes or no findings as the source states them, for the method shown. Some results given as binding are weak or reduced against the parent protein; the word gives no strength.

In this test the target is T1, annotated full-length CNTD1 (Cyclin N-terminal domain-containing 1), yeast two-hybrid bait (mouse) (UniProt Q9D995).
T1 sequence: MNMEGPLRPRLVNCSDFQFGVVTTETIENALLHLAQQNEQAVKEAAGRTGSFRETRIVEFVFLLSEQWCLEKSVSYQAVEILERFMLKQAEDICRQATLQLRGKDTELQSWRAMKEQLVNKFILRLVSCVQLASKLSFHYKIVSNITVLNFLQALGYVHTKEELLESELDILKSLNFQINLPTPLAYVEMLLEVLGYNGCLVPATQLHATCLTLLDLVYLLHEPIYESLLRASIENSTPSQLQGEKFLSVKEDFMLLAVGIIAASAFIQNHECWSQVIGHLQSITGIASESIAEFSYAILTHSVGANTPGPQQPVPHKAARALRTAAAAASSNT
The experiment in a line: two-hybrid.

B1: CDK4, yeast two-hybrid prey (enzyme, UniProt P30285 1-303)
chain: MAATRYEPVAEIGVGAYGTVYKARDPHSGHFVALKSVRVPNGGAAGGGLPVSTVREVALLRRLEAFEHPNVVRLMDVCATSRTDRDIKVTLVFEHIDQDLRTYLDKAPPPGLPVETIKDLMRQFLSGLDFLHANCIVHRDLKPENILVTSNGTVKLADFGLARIYSYQMALTPVVVTLWYRAPEVLLQSTYATPVDMWSVGCIFAEMFRRKPLFCGNSEADQLGKIFDLIGLPPEDDWPREVSLPRGAFAPRGPRPVQSVVPEMEESGAQLLLEMLTFNPHKRISAFRALQHSYLHKEESDAE
As to B1, the binding entry is “binds”.
